At least one structure is not confirmed: it was looked up by name or label, or the drawing left a doubt.
How the values were obtained:
Format in all cases: cell-based
Escherichia coli = experiment: Antimicrobial screening by agar dilution, Escherichia coli; conditions: E. Coli
Method: (§1) The antibacterial properties of the synthesized compound 2-benzo-[3,4-b]quinolino-[b,g]indeno[1′,2′:3,4]fluoreno-[1,2-d]oxonine-5,11,16,21-tetraone were studied by the method of agar dilution. Test solutions of each compound was prepared in concentration of 1% using dimethylformamide as a solvent then they are diluted in physiological solution to obtain the final experimental dilutions 1:100, 1:200, 1:400, 1:800. The effect of these substances are compared with furacillin in a controllable study. The testing microbes used were gram positive bacteria Staphylococcus aureus, gram negative bacteria Pseudomonas aeruginosa and Escherichia co/i and Candida albicans fungus. The experiments used for this survey were meat-pentonlu agar (EPA) for cultivation of bacteria and Saburo environment for the fungus. Each experiment used 1 mL of test solution on each plate […]. Two drops of emulsified with microbes feel were added. All experimental samples were taken from the agar after 10, 20, 40, 60 minutes in the environment on the basis of Patrk planted. The bacteria were cultivated at a temperature of 37° C. for 1 day and the mushroom was kept in a thermostat for […] at a temperature of 28° C. Then results were checked.

Staphylococcus aureus = experiment: Antimicrobial screening by agar dilution, Staphylococcus aureus; conditions: St. Aereus
Method: as §1

Candida albicans = experiment: Antimicrobial screening by agar dilution, Candida albicans
Method: as §1

Pseudomonas aeruginosa = experiment: Antimicrobial screening by agar dilution, Pseudomonas aeruginosa; conditions: Ps. aeruginosa
Method: as §1

[1] = dilution rate 1:100, exposure time 10 min
[2] = dilution rate 1:100, exposure time 20 min
[3] = dilution rate 1:100, exposure time 40 min
[4] = dilution rate 1:100, exposure time 60 min
[5] = dilution rate 1:200, exposure time 10 min
[6] = dilution rate 1:200, exposure time 20 min
[7] = dilution rate 1:200, exposure time 40 min
[8] = dilution rate 1:200, exposure time 60 min
[9] = dilution rate 1:400, exposure time 10 min
[10] = dilution rate 1:400, exposure time 20 min
[11] = dilution rate 1:400, exposure time 40 min
[12] = dilution rate 1:400, exposure time 60 min
[13] = dilution rate 1:800, exposure time 10 min
[14] = dilution rate 1:800, exposure time 20 min
[15] = dilution rate 1:800, exposure time 40 min
[16] = dilution rate 1:800, exposure time 60 min

Measured: antimicrobial activity

NC(=O)N/N=C/c1ccc([N+](=O)[O-])o1 [Furacilin]
+: Escherichia coli; [5] | Escherichia coli; [6] | Escherichia coli; [7] | Escherichia coli; [8] | Escherichia coli; [9] | Escherichia coli; [10] | Escherichia coli; [11] | Escherichia coli; [12] | Escherichia coli; [13] | Escherichia coli; [14] | Escherichia coli; [15] | Escherichia coli; [16] | Staphylococcus aureus; [5] | Staphylococcus aureus; [6] | Staphylococcus aureus; [7] | Staphylococcus aureus; [8] | Staphylococcus aureus; [9] | Staphylococcus aureus; [10] | Staphylococcus aureus; [11] | Staphylococcus aureus; [12] | Staphylococcus aureus; [13] | Staphylococcus aureus; [14] | Staphylococcus aureus; [15] | Staphylococcus aureus; [16] | Candida albicans; [3] | Candida albicans; [4] | Candida albicans; [5] | Candida albicans; [6] | Candida albicans; [7] | Candida albicans; [8] | Candida albicans; [9] | Candida albicans; [10] | Candida albicans; [11] | Candida albicans; [12] | Candida albicans; [13] | Candida albicans; [14] | Candida albicans; [15] | Candida albicans; [16] | Pseudomonas aeruginosa; [1] | Pseudomonas aeruginosa; [2] | Pseudomonas aeruginosa; [3] | Pseudomonas aeruginosa; [4] | Pseudomonas aeruginosa; [5] | Pseudomonas aeruginosa; [6] | Pseudomonas aeruginosa; [7] | Pseudomonas aeruginosa; [8] | Pseudomonas aeruginosa; [9] | Pseudomonas aeruginosa; [10] | Pseudomonas aeruginosa; [11] | Pseudomonas aeruginosa; [12] | Pseudomonas aeruginosa; [13] | Pseudomonas aeruginosa; [14] | Pseudomonas aeruginosa; [15] | Pseudomonas aeruginosa; [16]
−: Escherichia coli; [1] | Escherichia coli; [2] | Escherichia coli; [3] | Escherichia coli; [4] | Staphylococcus aureus; [1] | Staphylococcus aureus; [2] | Staphylococcus aureus; [3] | Staphylococcus aureus; [4] | Candida albicans; [1] | Candida albicans; [2]

Source: patent US11970504B1, “2-benzo-[3,4-b] quinolino-{b,g]indeno [1′,2′:3,4] fluoreno-[1,2-d] Oxonine-5,11,16,21-tetraone as an antimicrobial compound” (KING FAISAL UNIVERSITY, priority 2023, dated 2024)
